PubChem BioAssay AID743121 | NCATS, 2013
Purpose: 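Partners whose loss is lethal together with topoisomerase I blockade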 (primary screen). Cell system: MDA-MB-231 cells, a human breast cancer line. Reagent: single siRNA against human genes, 20 nM siRNA (0.8 pmol per well). Timing: 120 h (drug added 48 h after transfection, read 72 h later). Treatment: camptothecin 20 nM (about EC30) for 72 h; vehicle 0.1% DMSO in parallel plates. Detection: 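CellTiter-Glo ATP signal, scaled to control siRNA as percent viability; sensitisation given as log2 of untreated divided by camptothecin-treated viability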. Reading the numbers: log2 vehicle/camptothecin viability: higher = stronger sensitisation to camptothecin; viability with camptothecin and viability without drug: higher = more viable cells. Hit rule: 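Each gene scored by redundant siRNA activity (RSA) over its individual siRNA ratios; a gene is called active at p < 0.001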.
This is one part, drawn at random, of about 26,000 reagents. Of all reagents, 167 (0.63%) got an active call. 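Calls are per gene from RSA p-values that are not deposited; an individual active-marked siRNA can sensitise only weakly.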 Reagents against one gene are numbered here.

log2 vehicle/camptothecin viability,viability with camptothecin (% of control),viability without drug (% of control),activity call,gene,reagent no.
-0.0478,108,105,inactive,LCOR,1
-0.218,101,86.9,inactive,LCOR,2
-0.193,74.3,65,inactive,LCOR,3
0.357,72.4,92.7,inactive,LCOR,4
-0.279,88.5,73,inactive,VPS39,1
0.637,37.2,57.8,inactive,VPS39,2
-0.347,68.1,53.6,inactive,VPS39,3
-0.0498,92.4,89.3,inactive,CLK1,1
-0.253,56.5,47.4,inactive,CLK1,2
0.318,25,31.1,inactive,CLK1,3
-0.18,108,95.7,inactive,CLK1,4
0.621,58,89.2,inactive,TNFRSF13C,1
-0.0902,90.7,85.2,inactive,TNFRSF13C,2
-0.454,60.9,44.5,inactive,TNFRSF13C,3
-0.216,66.8,57.5,inactive,TNFRSF13C,4
-0.292,109,88.7,inactive,PPP1R8,1
-0.339,59.5,47.1,inactive,PPP1R8,2
-0.0686,89.1,84.9,inactive,PPP1R8,3
-0.0849,112,105,inactive,PPP1R8,4
0.0894,92.5,98.4,inactive,RBM10,1
-0.0779,62.3,59,inactive,RBM10,2
-0.31,85.8,69.2,inactive,RBM10,3
-0.0779,74.6,70.7,inactive,DNMT1,1
0.0551,102,106,inactive,DNMT1,2
0.0922,95.6,102,inactive,DNMT1,3
-0.148,93.8,84.7,inactive,DNMT1,4
-0.0175,86,84.9,inactive,DECR1,1
-0.128,62.7,57.4,inactive,DECR1,2
-0.209,96.4,83.4,inactive,DECR1,3
0.0536,75.6,78.4,inactive,DECR1,4
-0.788,64.8,37.5,inactive,CLCN4,1
-0.00814,75.3,74.9,inactive,CLCN4,2
-0.34,92.1,72.8,inactive,CLCN4,3
-0.366,69.1,53.6,inactive,THAP12,1
-0.379,114,88,inactive,THAP12,2
-0.125,65,59.6,inactive,THAP12,3
-0.469,72.1,52.1,inactive,THAP12,4
0.21,26.7,30.9,inactive,GPX6,1
0.45,48.4,66.1,inactive,GPX6,2
-0.26,98.1,81.9,inactive,GPX6,3
0.0966,99,106,inactive,GPX6,4
-0.107,107,99.1,inactive,REM1,1
0.0818,102,108,inactive,REM1,2
-0.463,72.9,52.9,inactive,REM1,3
-0.367,74.7,57.9,inactive,REM1,4
0.132,90.9,99.6,inactive,PTPRVP,1
-0.34,59.3,46.8,inactive,PTPRVP,2
0.141,67.5,74.5,inactive,PTPRVP,3
-0.00432,80,79.7,inactive,PTPRVP,4
-0.436,104,77,inactive,CETN1,1
-0.303,99.8,80.9,inactive,CETN1,2
-0.0842,84,79.2,inactive,CETN1,3
-0.507,92.6,65.2,inactive,MAPK13,1
-0.0985,89.2,83.3,inactive,MAPK13,2
-0.229,28.1,24,inactive,MAPK13,3
0.379,58.7,76.3,inactive,MAPK13,4
-0.207,83.5,72.3,inactive,CRABP2,1
-0.489,40.8,29.1,inactive,CRABP2,2
-0.102,92.1,85.8,inactive,CRABP2,3
-0.0778,111,105,inactive,CRABP2,4
-0.347,81,63.6,inactive,CTSO,1
-0.365,78.8,61.2,inactive,CTSO,2
0.074,87.6,92.2,inactive,CTSO,3
0.0141,117,118,inactive,FBXO30,1
0.0163,98.9,100,inactive,FBXO30,2
-0.0464,93.2,90.2,inactive,FBXO30,3
-0.485,95.6,68.3,inactive,MSR1,1
-0.04,100,97.2,inactive,MSR1,2
-0.357,63.3,49.4,inactive,MSR1,3
0.303,55.2,68.1,inactive,MSR1,4
1.21,39.7,92,inactive,ZMYND19,1
-0.0967,87.7,82,inactive,ZMYND19,2
-0.115,76.4,70.6,inactive,ZMYND19,3
0.094,67.8,72.4,inactive,MRGPRX2,1
-0.599,83.9,55.4,inactive,MRGPRX2,2
-0.369,147,113,inactive,MRGPRX2,3
1.01,23,46.2,inactive,MRGPRX2,4
-0.415,69.7,52.3,inactive,JADE1,1
-0.018,108,107,inactive,JADE1,2
0.809,19.6,34.3,inactive,JADE1,3
0.54,37.4,54.4,inactive,JADE1,4
-0.47,91.7,66.2,inactive,TNFRSF19,1
-0.146,108,97.4,inactive,TNFRSF19,2
0.156,69.7,77.6,inactive,TNFRSF19,3
-0.388,44.5,34,inactive,GNRHR2,1
0.38,70.1,91.2,inactive,GNRHR2,2
-0.206,94.1,81.6,inactive,GNRHR2,3
-0.0387,97,94.4,inactive,GNRHR2,4

No new results follow: an excerpt of the list.
log2 vehicle/camptothecin viability,viability with camptothecin (% of control),viability without drug (% of control),activity call,gene,reagent no.
-0.148,93.8,84.7,inactive,DNMT1,4
-0.0175,86,84.9,inactive,DECR1,1
-0.128,62.7,57.4,inactive,DECR1,2
-0.209,96.4,83.4,inactive,DECR1,3
0.0536,75.6,78.4,inactive,DECR1,4
-0.788,64.8,37.5,inactive,CLCN4,1
-0.00814,75.3,74.9,inactive,CLCN4,2
-0.34,92.1,72.8,inactive,CLCN4,3
-0.366,69.1,53.6,inactive,THAP12,1
-0.379,114,88,inactive,THAP12,2
